These are yes or no findings as the source states them, for the method shown. Binding seen in cells or lysates may run through a third protein. Binding calls can cover weak binding; strength is not graded here.

This test concerns the target GST fused to the C-terminal region of occludin (UniProt Q61146). Put plainly: pull-down.

For the substance “GFP-tagged ZPSG region of ZO-1 (ZPSG-1, residues 417-806) (from UniProt Q07157 417-806) (domain or fragment)”, the binding result is listed as “binds”.

The values are drawn from article doi:10.1101/156513.
